Measurements reported in PubChem BioAssay AID504786 (Drosophila RNAi Screening Center, 2011)

Test: 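Knock-downs reducing HIF reporter induction by the iron chelator DFO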 (primary screen)
Cell system: Drosophila S2 cells with a stable HIF luciferase reporter
Knock-down reagent: long dsRNA against Drosophila genes, about 0.2 µg dsRNA per well of a 384-well plate
Duration: three days of knock-down, then 20 h of DFO before reading
Conditions: desferrioxamine (DFO) at 100 µM, an iron chelator that mimics hypoxia, for 20 h
Measurement: 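HIF reporter luminescence in cells given 100 µM DFO for 20 h, using the mouse ldh-a hypoxia-response element, scored as per-plate z-scores; higher means greater loss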
Direction: z-score: higher = stronger loss of HIF reporter signal
In all, the deposit lists about 21,000 reagents; below is a random part of those with a known target gene and a result. 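Primary screen; positive scores mean lost reporter signal, so the sign may be inverted from the usual convention.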 A plus sign joins genes that one reagent is predicted to hit. Further read-outs or replicates are left out here. No sequences are given here.

The opening 4 entries, to show the layout:
piwi [DRSC03592] — z-score, replicate 1: -0.3
CR40450 + CG32767 [DRSC18387] — z-score, replicate 1: -0.2
CG42715 (retired record) [DRSC05499] — z-score, replicate 1: 0.1
CG15153 [DRSC02454] — z-score, replicate 1: -0.2

Results, repeating the preview:
piwi [DRSC03592] — z-score, replicate 1: -0.3
CR40450 + CG32767 [DRSC18387] — z-score, replicate 1: -0.2
CG42715 (retired record) [DRSC05499] — z-score, replicate 1: 0.1
CG15153 [DRSC02454] — z-score, replicate 1: -0.2
CG34174 [DRSC00101] — z-score, replicate 1: 1.2
b6 [DRSC18740] — z-score, replicate 1: 0.1
Polr3K + Tcs1 [DRSC05988] — z-score, replicate 1: -0.1
CG12480 [DRSC19460] — z-score, replicate 1: -0.4
Sodh2 [DRSC16865] — z-score, replicate 1: -0.3
Cby [DRSC14591] — z-score, replicate 1: 0.3
crn [DRSC18184] — z-score, replicate 1: 6.3
crn [DRSC18185] — z-score, replicate 1: 4.3
crn [DRSC18755] — z-score, replicate 1: 4.7
Snm1 [DRSC12130] — z-score, replicate 1: -0.4
CG5225 [DRSC15742] — z-score, replicate 1: 0
N [DRSC18685] — z-score, replicate 1: -0.3
pod1 [DRSC18362] — z-score, replicate 1: -0.1
CG11307 [DRSC11648] — z-score, replicate 1: -0.3
Ser [DRSC16856] — z-score, replicate 1: -0.3
CG12241 [DRSC14481] — z-score, replicate 1: -0.1
CG5087 [DRSC10479] — z-score, replicate 1: -0.1
CG15570 [DRSC18058] — z-score, replicate 1: -0.3
Pldn [DRSC10137] — z-score, replicate 1: -0.3
wac [DRSC08349] — z-score, replicate 1: 0
CG15047 [DRSC19623] — z-score, replicate 1: 0.2
CPT2 [DRSC08553] — z-score, replicate 1: 0.1
CG12912 [DRSC06227] — z-score, replicate 1: 4.7
mRpL24 [DRSC03113] — z-score, replicate 1: 1.2
CG8646 [DRSC07230] — z-score, replicate 1: -0.3
CR11235 [DRSC20480] — z-score, replicate 1: -0.5
pont [DRSC17029] — z-score, replicate 1: 3.9
Fer1 [DRSC12507] — z-score, replicate 1: -0.1
Fer1 [DRSC12555] — z-score, replicate 1: -0.4
CG11790 [DRSC14390] — z-score, replicate 1: -0.2
14-3-3epsilon [DRSC16370] — z-score, replicate 1: 0.1
snu [DRSC16589] — z-score, replicate 1: -0.3
CG31751 [DRSC02464] — z-score, replicate 1: -0.1
CG31751 [DRSC02465] — z-score, replicate 1: -0.2
Muc91C [DRSC16297] — z-score, replicate 1: -1.3
HisCl1 [DRSC14945] — z-score, replicate 1: -0.3
